The name of at least one read-out is uncertain.
Assay: Vitamin D3 stability and recovery
Type: physicochemical
Conditions: water at 100° C.
Description: Vitamin D3 is not stable under heat. Alteration involves ring-closure that allows generation of pyro- and isopyro-isomers. […] However, it degraded in water at 100° C. after 2 hours. The recovery of vitamin D3 in water at 100° C. is concentration-dependent. When the starting amount of vitamin D3 increased, the recovery after 2 hours cooking also went up, from 2% (15 μg), to 12% (60 μg), to 40% (240 μg), and to 60% (1 mg). The encapsulation of vitamin D3 in EPO matrix helped to stabilize the vitamin D3. The characteristic absorbance peak of vitamin D3 was preserved in D3-EPO after 100° C. in water for 2 hours. […] With HPLC, the recovery of D3 in D3-EPO was quantified to be around 47%.

C=C1CC[C@H](O)C/C1=C/C=C1\CCC[C@]2(C)[C@@H]([C@H](C)CCCC(C)C)CC[C@@H]12 [Vitamin D3, cholecalciferol]
recovery after 2 hours cooking (starting amount 15 μg): 2%
recovery after 2 hours cooking (starting amount 60 μg): 12%
recovery after 2 hours cooking (starting amount 240 μg): 40%
recovery after 2 hours cooking (starting amount 1 mg): 60%

— patent US9649279B2, “Fortified micronutrient salt formulations” (Massachusetts Institute of Technology, priority 2013, dated 2017)
